This is one part of the list.
Compound: Cc1cc(ccc1-c1ccccc1)C(=O)N1CCCN(CC1)C(=O)CCl [compound 10]
Assay: probe-labelled cysteine peptide fold change vs DMSO (competition) (log2 fold change); higher = less target engagement (more negative = stronger competition)
Details: THP-1, incubation time: 4 h
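Further: competitive profiling in live THP-1 cells: cysteine peptides tagged with an iodoacetamide desthiobiotin (IA-DTB) probe, intensity after compound treatment relative to DMSO-treated cells.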

Target	probe-labelled cysteine peptide fold change (10 µM)	probe-labelled cysteine peptide fold change (50 µM)
RANBP2_P49792_1424_EGHWDCSICLVR (UniProt P49792)	0.133	0.0538
RAPGEF6_Q8TEU7_105_GCDCLVLEPSEMIVVENAK (UniProt Q8TEU7)	-0.012	-0.465
RBBP5_Q15291_100_LVSASTDNIVSQWDVLSGDCDQR (UniProt Q15291)	0.121	0.0651
RBM5_P52756_766_CQGITAPIEAQVR (UniProt P52756)	-0.314	-0.787
RAN_P62826_112_VCENIPIVLCGNK (UniProt P62826)	0.0712	0.0886
RBM15_Q96T37_926_ENTGVLHAFPPCEFSQQFLDSPAK (UniProt Q96T37)	0.0231	-0.0391
RANBP2_P49792_1375_CVSCQNLNPSNK (UniProt P49792)	0.081	-0.112
RBM22_Q9NW64_74_TEVCQTCSK (UniProt Q9NW64)	0.119	-0.148
RBM4_Q9BWF3_89_LHVGNISPTCTNK (UniProt Q9BWF3)	-0.0262	-0.0246
RCHY1_Q96PM5_119_EDFFHCLK (UniProt Q96PM5)	0.0681	-0.253
RCSD1_Q6JBY9_181_RSQSDCGELGDFR (UniProt Q6JBY9)	-0.852	-1.19
RBBP6_Q7Z6E9_27_LNYDTVTFDGLHISLCDLKK (UniProt Q7Z6E9)	0.0263	-0.077
RBCK1_Q9BYM8_493_WGPGGPGDTSGGCR (UniProt Q9BYM8)	0.0272	-0.208
RARS_P54136_638_MLLCEAVAAVMAK (UniProt P54136)	-0.175	0.314
RASA1_P20936_828_QSCELSPSK (UniProt P20936)	0.0294	0.292
RARS_P54136_502_VLTAEELNAAQTSVAYGCIK (UniProt P54136)	0.12	0.104
RANBP2_P49792_1552_EGQWDCSSCLVR (UniProt P49792)	0.105	-0.393
RAP1GDS1_P52306_560_YNSMVLICALMGSECLHK (UniProt P52306)	0.0815	-0.249
RANBP3_Q9H6Z4_228_SPSEAADEVCALEEK (UniProt Q9H6Z4)	-0.187	0.0811
RBMXL1_Q96E39_338_SDLYSSCDR (UniProt Q96E39)	0.12	-0.287

Another view of some results above:
Target | probe-labelled cysteine peptide fold change (10 µM) | probe-labelled cysteine peptide fold change (50 µM)
RANBP3_Q9H6Z4_228_SPSEAADEVCALEEK (UniProt Q9H6Z4) | -0.187 | 0.0811
RBMXL1_Q96E39_338_SDLYSSCDR (UniProt Q96E39) | 0.12 | -0.287

(list continues)

Target	probe-labelled cysteine peptide fold change (10 µM)	probe-labelled cysteine peptide fold change (50 µM)
RASAL3_Q86YV0_447_LCGALEPALPAQAK (UniProt Q86YV0)	0.184	0.0548
RANBP2_P49792_1243_ICANHYISPDMK (UniProt P49792)	0.0568	0.0875
RANBP10_Q6VN20_243_VQGTVHCFPISAR (UniProt Q6VN20)	-0.138	-0.226
RBPJ_Q06330_313_IIQFQATPCPK (UniProt Q06330)	-0.0745	-0.176
RASAL2_Q9UJF2_333_NKEELACALVHILQSTGR (UniProt Q9UJF2)	0.106	-0.178
RBM4B_Q9BQ04_89_LHVGNISPTCTNQELR (UniProt Q9BQ04)	0.0928	0.191
RASAL2_Q9UJF2-2_95_KYCILTDSQLVLLNK (UniProt Q9UJF2)	0.13	-0.173
RAP1B_P61224_51_QVEVDAQQCMLEILDTAGTEQFTAMR (UniProt P61224)	0.124	0.124
RARS2_Q5T160_576_LLGITPVCR (UniProt Q5T160)	-0.27	-0.0629
RBBP6_Q7Z6E9_280+283_DIMTDAVVIPCCGNSYCDECIR (UniProt Q7Z6E9)	-0.169	-0.403
RBM28_Q9NW13_490_LCLHNLPK (UniProt Q9NW13)	0.0958	-0.0599
RARS_P54136_34_NCGCLGASPNLEQLQEENLK (UniProt P54136)	-0.247	-1.27
RANBP6_O60518_188_LLDQCIQDQEHPAIR (UniProt O60518)	-0.0322	-0.269
RASA1_P20936_1002_DLAALHEICVAHSDELR (UniProt P20936)	-0.144	0.0744
RBPJ_Q06330_286_CAFYLK (UniProt Q06330)	0.132	0.148
RANBP2_P49792_1549_EGQWDCSSCLVR (UniProt P49792)	0.0665	-0.279
RCC1L_Q96I51_401_CGLSHFAALTNKGELFVWGK (UniProt Q96I51)	-0.192	-0.717
RCC2_Q9P258_337_DVACGANHTLVLDSQKR (UniProt Q9P258)	-0.133	-0.211
RASSF5_Q8WWW0_225_NCLGMK (UniProt Q8WWW0)	-0.275	-0.844

— the supplement of paper PMC12067093, “Discovery and optimisation of a covalent ligand for TRIM25 and its application to targeted protein ubiquitination” (Chemical Science, 2025)
